Measured values: patent US20240010993A1, “CELL CULTURE CHAMBER AND METHOD FOR CULTURING CELLS AND FOR THE IN VITRO PRODUCTION OF CELL LAYERS AND ORGAN MODELS” (Dynamic42 GmbH, priority 2021, published 2024)
Some of these results come from one statement about several compounds together. At least one compound was matched to its structure with a doubt left.

Assay: adsorption effect of PBT in cell culture chambers (active substance adsorption)
Format: physicochemical
Settings: incubation period of 24 h, FIG. 3A, FIG. 3B
Protocol: After an incubation period of 24 h, at least 80% of the starting concentration of the propiconazole or the troglitazone is detectable in the culture medium (cf. FIG. 3A, FIG. 3B).
FIGS. 3A and 3B show results of experiments on the adsorption effect of PBT in two cell culture chambers 1 according to the disclosure of different designs. The designation, “Chip PBT-BC1,” denotes a first embodiment of the cell culture chamber 1, and “Chip PBT-BC2” a second embodiment. The first embodiment has a width B of 34.6 mm, a depth T of 6.56 mm, and a height H of 0.7 mm for the first channel 3. The second channel 4 has the dimensions of 44.8 mm, 3.6 mm, and 0.8 mm (W/D/H). The corresponding dimensions for the second embodiment, “Chip PBT-BC2,” of the cell culture chamber 1 are 34.6 mm, 8.06 mm, and 0.7 mm (W/D/H) for the first channel 3 and 49.4 mm, 5.61 mm, and 1.0 mm (B/T/H) for the second channel 4.
In comparison, a control in the form of a stock solution (100 μM) with propiconazole is given. […] In each case, it can be seen from the two graphics that, in both embodiments of the cell culture chamber 1 according to the disclosure, more than 85% of the propiconazole (FIG. 3A) and more than 80% of the troglitazone (FIG. 3B) in the culture medium 7 could be detected even after 24 hours.

CCCC1COC(Cn2cncn2)(c2ccc(Cl)cc2Cl)O1 (centres unmarked) [propiconazole]
starting concentration detectable in the culture medium: at least 80%

Cc1c(C)c2c(c(C)c1O)CCC(C)(COc1ccc(CC3SC(=O)NC3=O)cc1)O2 (centres unmarked) [troglitazone]
starting concentration detectable in the culture medium: at least 80%
